From PubChem BioAssay AID2810 (NMMLSC, 2010) come the findings set out here.

This assay can be described thus: modulators of CD8 T cell-vesicle binding, confirmation, cherry-picked primary hits, two concentrations (AID 2810).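 As to all read-outs here: lower values mean blocking of vesicle binding.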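 As to percent response (vesicle binding): ratio of mean FL2 vesicle stain of CD8+ cells to that row's control.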 The settings on record: 2C CD8+ T cell-vesicle binding, flow cytometry; for double positive events: CD8+/vesicle+ events.
Where [1] appears, read: at 15.4 µM, stronger effect = lower value.

The list shows a part of the results. These are further read-outs of the screen, such as a control signal, another cell line or another target. No call is given for them.

Consider `CC(C)CCNC(=O)[C@H](Cc1ccccc1)N1Cc2ccccc2C1=O`, for which, under “at 7.7 µM”, the double positive events stood at 15.9% and the percent response (vesicle binding) came out at 172%. The same compound displayed a double positive events under setting [1] of 21.9%.
For `COc1ccc(CC(=O)NC(=S)Nc2cccc(CO)c2)cc1`, in that order: 28.3%, 277% and 27.9%.
For `Cn1c(N)c(C(=O)COC(=O)CNC(=O)c2ccccc2F)c(=O)n(C)c1=O`, in that order: 13.3%, 237% and 20.1%.
For `N/C(CC(=O)NCCOc1ccccc1)=N\O`, in that order: 29.7%, 271% and 16.7%.
Turning to `O=C(Nc1ccc2c(c1)oc1ccccc12)c1cccnc1`, where the note is “at 7.7 µM”, the double positive events worked out at 12.5% and the percent response (vesicle binding) was 375%. Also, under setting [1], the double positive events was determined as 30.3%.
For `Fc1ccc(-c2noc(-c3ccc4c(c3)CCO4)n2)cc1`, in that order: 23.1%, 618% and 19.4%.
The matching figures for `COc1ccc(/C=N/Nc2ncnc3sc4c(c23)CCCC4)cc1OC`: 33.8%, 713% and 16.6%.
For `COc1ccc(Nc2ccccc2N)cc1`, in that order: 6.2%, 236% and 21.4%.
Regarding `CC(=O)OC[C@]12CC[C@H]3[C@@](C)(CC[C@H]4C(C)(C)CCC[C@]34C)[C@@H]1C[C@@H](C1=CC(=O)O[C@@H]1OC(C)=O)O2`, under “at 7.7 µM”, the double positive events came to 33.5% and the percent response (vesicle binding) is 312%. This compound registered a double positive events under setting [1] of 8.6%.
For `Cc1cc2nncn2c2ccccc12`, in that order: 18.9%, 528% and 9.7%.
Where the note is “at 7.7 µM”, `CC(=O)N1N=C(c2cccs2)CC1c1cc2cc(C)ccc2nc1Cl` (centres undefined) returned a double positive events of 22.1% and a percent response (vesicle binding) of 226%. Under setting [1], this compound displayed a double positive events of 25.3%.
For `O=C(/C=C/c1cccs1)NNC(=O)c1ccccc1`, in that order: 21%, 265% and 31.2%.
`Cc1ccc(NC2=CC(=O)C(=O)c3ccccc32)c(C)c1`: the double positive events by setting is: (at 7.7 µM) 11.7%; under setting [1], 32.9%. Further, the percent response (vesicle binding) (at 7.7 µM) turned out to be 332%.
The matching figures for `Cc1cc(C(=O)N/N=C/c2cccc([N+](=O)[O-])c2)c2ccccc2n1`: 8.4%, 26.9% and 225%.
With `O=C(NC1CCCCC1)C(=O)c1c[nH]c2ccccc12`, for the setting “at 7.7 µM”, the double positive events is 33.4% and the percent response (vesicle binding) turned out to be 148%. Also, the double positive events under setting [1] stood at 16.7%.
For `O=C(NC(Cc1cccc(F)c1)C(=O)O)C1CCCCC1` (centres undefined), in that order: 39.8%, 320% and 13.5%.
For `CCN(CC)c1ccc2c(Cl)cc(=O)oc2c1`, in that order: 11.2%, 303% and 27.8%.
For `Cc1nnc(SCC(=O)NC2CC2)n1CCc1ccccc1`, in that order: 9%, 436% and 15.6%.
For `CC(C)(C)OC(=O)NCCCCCc1nnc(SCc2ccc(F)cc2)o1`, the double positive events by setting is: (at 7.7 µM) 40.4%; under setting [1], 19.9%. The percent response (vesicle binding) (at 7.7 µM) came out at 471%.
For `Cc1cc(N2CCN(C)CC2)nc2ccc(NC(=S)N3CCC4(CC3)OCCO4)cc12`, in that order: 14.8%, 2.8% and 135%.
For `Cn1c(=O)c2c(nc(SCC(=O)c3ccccc3F)n2C)n(C)c1=O`, in that order: 10.4%, 8% and 156%.
Consider `CCN(CC)C(=O)c1cccc2c1C(=O)c1ccccc1-2`, for which, where the note is “at 7.7 µM”, the double positive events turned out to be 19.5% and the percent response (vesicle binding) came out at 215%. The double positive events under setting [1] stood at 18.7%.
For `Fc1ccc(C2CC(c3ccco3)n3ncnc3N2)cc1` (centres undefined), in that order: 9.8%, 161% and 13.2%.
For `COc1ccc2oc(=O)c(-c3csc(Nc4cccc(O)c4)n3)cc2c1`, the double positive events worked out at 24.5% (at 7.7 µM) and 18.7% under setting [1]. Where the note is “at 7.7 µM”, this compound displayed a percent response (vesicle binding) of 308%.
Take `Cc1cc(Cl)ccc1NC(=O)COC(=O)CCNS(=O)(=O)c1ccccc1`: the double positive events is, setting by setting: (at 7.7 µM) 10.7%; under setting [1], 24.6%. Besides, the percent response (vesicle binding) (at 7.7 µM) turned out to be 103%.
For `CN(C)c1ccc(/C=N/NC(=O)c2ccco2)cc1`, in that order: 6.6%, 16.3% and 276%.
Under “at 7.7 µM”, `CCN(CC)C(=O)[C@H]1CC(CC(=O)NC(C)(C)C)C(=O)N2CCc3c([nH]c4ccccc34)[C@]12C` (some centres undefined) registered a double positive events of 22.2% and a percent response (vesicle binding) of 714%. Further, the double positive events under setting [1] turned out to be 24.2%.
The matching figures for `CCOc1ccc(S(=O)(=O)N2CCOCC2)cc1NC(=O)CSCC(=O)Nc1cccc(C)c1`: 31.3%, 482% and 14.8%.
For `O=C(COc1ccccc1F)NCC(c1ccco1)N1CCCC1` (centres undefined), in that order: 26.5%, 322% and 11.1%.
The matching figures for `FC(F)(F)c1nnc2sc(-c3cccs3)nn12`: 19.2%, 152% and 21.6%.
Where the note is “at 7.7 µM”, `O=C(On1c(-c2ccccc2)nc2ccccc2c1=O)c1ccco1` yielded a double positive events of 38.7% and a percent response (vesicle binding) of 304%. Besides, the double positive events under setting [1] was 8%.
On to `Cc1cnc(C(=O)Nc2ccc(C)c(S(=O)(=O)N3CCCCC3)c2)cn1`, for which the double positive events is, setting by setting: (at 7.7 µM) 19.5%; under setting [1], 9.6%. The compound also came in with a percent response (vesicle binding) (at 7.7 µM) of 86.9%.
For `O=C(c1ccccc1)N1CCN(Cc2c[nH]c3ccccc23)CC1`, in that order: 17.4%, 14.2% and 598%.
For `O/N=C1\CCCc2oc3c(c21)CCCC3`, in that order: 24.6%, 7.6% and 365%.
For `COc1ccc(C(=O)NCc2c(C)nn(Cc3ccccc3)c2C)cc1S(=O)(=O)N1CCOCC1`, in that order: 22.1%, 29.3% and 626%.
For the compound `O=S(=O)(c1ccc(Cl)s1)N1CCC2(CC1)OCCO2`, the double positive events reads like this: (at 7.7 µM) 14.6%; under setting [1], 9.6%. Also, the percent response (vesicle binding) (at 7.7 µM) is 85%.
The matching figures for `CCOC(=O)CC(NC(=O)c1cc2cccc(OC)c2oc1=O)c1cccc([N+](=O)[O-])c1` (centres undefined): 17.9%, 17.2% and 111%.
The matching figures for `O=C(COC(=O)c1ccc(Br)o1)NCc1ccc(Cl)cc1`: 12.2%, 9.2% and 378%.
As to `COc1ccc(O)c(C2=Nc3ccccc3N=C(c3cccs3)C2)c1`, the double positive events runs as follows: (at 7.7 µM) 28.5%; under setting [1], 7.2%. For the same compound, the percent response (vesicle binding) (at 7.7 µM) turned out to be 186%.
For `CC(C)(C)c1ccc(OCC(=O)NCc2ccco2)c(Br)c1`, in that order: 13.7%, 17.8% and 196%.
As for `Cc1ccc(N2C(=O)C(Cl)=C(N3CCCCCC3)C2=O)c(C)c1`, where the note is “at 7.7 µM”, the double positive events was determined as 19.6% and the percent response (vesicle binding) is 254%. Also, the double positive events under setting [1] was 11.4%.
Take `COCCNc1nc(C)c(C(C)=O)s1`: the double positive events runs as follows: (at 7.7 µM) 16.3%; under setting [1], 39.4%. Moreover, the percent response (vesicle binding) (at 7.7 µM) was 209%.
The matching figures for `COc1ccc(-c2cnnc(N/N=C/C(C)=C/c3ccccc3)n2)cc1`: 18.5%, 13.9% and 314%.
For the compound `CCCCCCC#Cc1ccc2c(c1)COc1c3ccccc3nn1-2`, the double positive events is, setting by setting: (at 7.7 µM) 30.9%; under setting [1], 24.4%. The percent response (vesicle binding) (at 7.7 µM) was 404%.
The matching figures for `CCOc1ccc2nnnn2n1`: 28.2%, 21.2% and 426%.
The matching figures for `Cc1ccc(Nc2cc(C)c(O)c(C)c2)cc1`: 9.9%, 26.7% and 120%.
Where the note is “at 7.7 µM”, `CN(C)CC(NC(=O)c1cccc(S(=O)(=O)Nc2ccc3c(c2)OCO3)c1)c1ccccc1` (centres undefined) gave a double positive events of 13.2% and a percent response (vesicle binding) of 124%. Besides, the double positive events under setting [1] was found to be 32.1%.
For `O=c1c2c(O)cc(O)cc2oc2ccc(O)c(O[C@@H]3O[C@H](CO)[C@@H](O)[C@H](O)[C@H]3O[C@H]3O[C@H](CO)[C@@H](O)[C@H](O)[C@H]3O)c12`, in that order: 13.6%, 144% and 34.6%.
For `CC(C)N(CCNC(=O)c1nn(Cc2ccccc2)c(=O)c2ccccc12)C(C)C`, in that order: 28.5%, 266% and 20.6%.
The matching figures for `C[C@H](CO)N1C[C@H](C)[C@@H](CN(C)Cc2ccncc2)Oc2c(NC(=O)CCCCCC(=O)Nc3ccccc3N)cccc2C1=O`: 12.5%, 190% and 23.6%.
Where the note is “at 7.7 µM”, `COc1ccc(CCc2nc(-c3ccc(-n4cccc4)cc3)no2)cc1` registered a double positive events of 19.9% and a percent response (vesicle binding) of 762%. In addition, under setting [1], the double positive events was found to be 32.2%.
On to `Cc1ccc(C(C)C)c(OCC(=O)N2CCN(c3ncccn3)CC2)c1`, for which, under “at 7.7 µM”, the double positive events was determined as 9.8% and the percent response (vesicle binding) came out at 314%. The compound further came in with a double positive events under setting [1] of 26.6%.
For `CC(Oc1ccccc1Cl)C(=O)N1CCCN(C)CC1` (centres undefined), the double positive events came to 18.8% (at 7.7 µM) and 23.4% under setting [1]. Where the note is “at 7.7 µM”, this compound returned a percent response (vesicle binding) of 470%.
